Among the data in paper PMC7504119 are binding values, retold here.

Amino acid sequences for entries named in this document (tags omitted). Residues count along the entry.
UniProt P25705, residues 44-553: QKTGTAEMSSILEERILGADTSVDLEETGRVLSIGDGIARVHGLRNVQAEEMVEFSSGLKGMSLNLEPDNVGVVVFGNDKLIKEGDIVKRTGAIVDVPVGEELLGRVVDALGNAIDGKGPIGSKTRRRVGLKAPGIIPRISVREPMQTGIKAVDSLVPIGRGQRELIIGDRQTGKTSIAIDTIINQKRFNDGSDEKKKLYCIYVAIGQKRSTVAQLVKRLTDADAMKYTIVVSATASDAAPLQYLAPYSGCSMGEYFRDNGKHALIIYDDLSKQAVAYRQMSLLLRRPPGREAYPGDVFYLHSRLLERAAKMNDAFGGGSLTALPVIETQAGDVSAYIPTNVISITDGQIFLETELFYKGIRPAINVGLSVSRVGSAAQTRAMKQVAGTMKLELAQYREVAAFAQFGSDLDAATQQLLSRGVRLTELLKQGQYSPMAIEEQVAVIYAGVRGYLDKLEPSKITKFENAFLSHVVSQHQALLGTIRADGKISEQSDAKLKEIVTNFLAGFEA

The target of the assay is endogenous ATP5A (HEK293) (human (endogenous in HEK293)) (UniProt P25705). As to the kind of experiment: co-IP; endogenous ATP5A immunoprecipitated from HEK293 with anti-ATP5A on protein G/A beads, immunoblot for Sestrin2; cells treated with 10 μM CCCP 2 h, 500 μM CuSO4 6 h or 400 μM H2O2 6 h. On the technique in general: Immunoblotting shows a protein as a band on a membrane.

Results are given in words; binding and its absence hold for the method and conditions named. Binding seen in cells or lysates may run through a third protein. Some binding calls cover weakened binding; strength is not graded here.

B1: endogenous Sestrin2 (HEK293) (protein, UniProt P58004 1-480)
chain: MIVADSECRAELKDYLRFAPGGVGDSGPGEEQRESRARRGPRGPSAFIPVEEVLREGAESLEQHLGLEALMSSGRVDNLAVVMGLHPDYFTSFWRLHYLLLHTDGPLASSWRHYIAIMAAARHQCSYLVGSHMAEFLQTGGDPEWLLGLHRAPEKLRKLSEINKLLAHRPWLITKEHIQALLKTGEHTWSLAELIQALVLLTHCHSLSSFVFGCGILPEGDADGSPAPQAPTPPSEQSSPPSRDPLNNSGGFESARDVEALMERMQQLQESLLRDEGTSQEEMESRFELEKSESLLVTPSADILEPSPHPDMLCFVEDPTFGYEDFTRRGAQAPPTFRAQDYTWEDHGYSLIQRLYPEGGQLLDEKFQAAYSLTYNTIAMHSGVDTSVLRRAIWNYIHCVFGIRYDDYDYGEVNQLLERNLKVYIKTVACYPEKTTRRMYNLFWRHFRHSEKVHVNLLLLEARMQAALLYALRAITRYMT
On to B1, for which the binding result is reported as “binds”.
